Values of other authors as cited in patent US6632806B1, “Neurologically-active compounds” (The University of Sydney, priority 1997, dated 2003).

Biological target: GABAC receptors
Details: read-out: KD (agonist); cited from earlier work

SMILES: NCCCC(=O)O [GABA, γ-Aminobutyric acid]
- Kd: 1700 nM
